Measured values: US20220073935A1
No constants are given. Whether binding was seen depends on the method and setting. Some results given as binding are weak or reduced against the parent protein; the word gives no strength.

Chains of the proteins cited; added tags and fusions are not shown. Lines headed by an entry give the natural chain unless they say otherwise; changes in a name come on top.
UniProt Q01094: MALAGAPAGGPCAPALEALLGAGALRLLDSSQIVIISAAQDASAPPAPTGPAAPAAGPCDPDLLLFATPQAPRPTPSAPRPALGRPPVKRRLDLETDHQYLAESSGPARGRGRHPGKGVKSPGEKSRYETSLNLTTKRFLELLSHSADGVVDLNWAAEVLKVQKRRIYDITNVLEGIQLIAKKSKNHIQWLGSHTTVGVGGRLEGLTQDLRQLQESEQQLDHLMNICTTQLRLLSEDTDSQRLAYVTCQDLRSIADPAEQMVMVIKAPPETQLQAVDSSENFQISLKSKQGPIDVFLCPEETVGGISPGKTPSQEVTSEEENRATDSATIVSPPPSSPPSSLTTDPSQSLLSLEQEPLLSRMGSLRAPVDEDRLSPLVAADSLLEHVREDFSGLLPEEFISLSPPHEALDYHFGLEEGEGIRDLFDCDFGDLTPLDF
UniProt Q14186: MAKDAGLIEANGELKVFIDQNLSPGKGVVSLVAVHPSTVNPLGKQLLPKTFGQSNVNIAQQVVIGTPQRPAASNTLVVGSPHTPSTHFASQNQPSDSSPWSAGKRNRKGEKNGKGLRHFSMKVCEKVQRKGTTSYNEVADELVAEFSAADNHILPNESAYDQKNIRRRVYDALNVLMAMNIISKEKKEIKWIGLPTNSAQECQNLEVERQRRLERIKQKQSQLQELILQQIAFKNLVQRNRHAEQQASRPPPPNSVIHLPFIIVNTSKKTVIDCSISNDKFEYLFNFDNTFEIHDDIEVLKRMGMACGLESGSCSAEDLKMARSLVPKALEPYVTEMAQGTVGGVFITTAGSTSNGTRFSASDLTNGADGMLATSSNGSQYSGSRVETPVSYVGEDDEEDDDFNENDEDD

Legend:
[1] = target: T1, E2F1-LB, Dp-1 (E2F1 fragment with C-terminal Large BiT, co-expressed with Dp-1 fragment carrying Large BiT) (human) (UniProt Q01094+Q14186); test: NanoBiT split-luciferase complementation, transiently transfected HEK293 cells
[2] = target: T2, E2F1-Dp-1-LB (E2F1 linked to Dp-1 through GGSG, Large BiT at the C-terminus; stable cell line #11) (human) (UniProt Q01094+Q14186); test: NanoBiT split-luciferase complementation, HEK293 CDK DKO clones stably expressing E2F1-Dp-1/LB
[3] = target: T2, E2F1-Dp-1-LB (E2F1 linked to Dp-1 through GGSG, Large BiT at the C-terminus; stable cell line #11) (human); test: NanoBiT split-luciferase complementation, stable cell line #11 with CDK4/CDK6, Cyclin D1 and p16
[4] = target: T1, E2F1-LB, Dp-1 (E2F1 fragment with C-terminal Large BiT, co-expressed with Dp-1 fragment carrying Large BiT) (human); test: NanoBiT split-luciferase complementation, HEK293 cells with CDK4 or CDK6 treated with a CDK inhibitor

Measured: binding

B1: SB-Rb (Small BiT linked to the N-terminus of an Rb fragment) (protein)
chain: MVTGYRLFEEILGSSGGGGSGGGGSSGGAQGNSYASTRPPTLSPIPHIPRSPYKFPSSPLRIPGGNIYISPLKSPYKISEGLPTPTKMTPRSRILVSIGESFGTSEKFQKINQMVCNSDRVLKRSAEGSNPPKPLKKLRFDIEGSDEADGSKHLPGESKFQQKLAEMTSTRTRMQKQKMNDSMDTSNKEEK
binds: [1] | [2] | [3] | [4]
